For test [1], the target named is neuron-myelin 5-mer signaling complex (NgR1, Lingo-1-Fc, p75, MAG, GT1b-Na) (mouse | human) (UniProt Q9D1T0+Q9BZR6+P08138+P20916). Description: pull-down; protein A-Sepharose; bait: pre-formed neuronal complex (Lingo-1-Fc, NgR1, p75, GT1b), pre-formed 5-mer complex, p75-Fc, or ADAM17 ECD (E406A)-Fc; prey: ADAM17 ECD (E406A), ADAM17 D+C or untagged p75; washed twice; SDS-PAGE; both purified.

The chains behind the UniProt entries cited, without tags or fusion partners. Where a name states a change or a piece, a line headed by the entry shows the natural chain unless it says otherwise. A line that says so, or that is headed by a name, gives the form on record, which may keep a tag or linker. Residues count along the entry.
UniProt Q9D1T0: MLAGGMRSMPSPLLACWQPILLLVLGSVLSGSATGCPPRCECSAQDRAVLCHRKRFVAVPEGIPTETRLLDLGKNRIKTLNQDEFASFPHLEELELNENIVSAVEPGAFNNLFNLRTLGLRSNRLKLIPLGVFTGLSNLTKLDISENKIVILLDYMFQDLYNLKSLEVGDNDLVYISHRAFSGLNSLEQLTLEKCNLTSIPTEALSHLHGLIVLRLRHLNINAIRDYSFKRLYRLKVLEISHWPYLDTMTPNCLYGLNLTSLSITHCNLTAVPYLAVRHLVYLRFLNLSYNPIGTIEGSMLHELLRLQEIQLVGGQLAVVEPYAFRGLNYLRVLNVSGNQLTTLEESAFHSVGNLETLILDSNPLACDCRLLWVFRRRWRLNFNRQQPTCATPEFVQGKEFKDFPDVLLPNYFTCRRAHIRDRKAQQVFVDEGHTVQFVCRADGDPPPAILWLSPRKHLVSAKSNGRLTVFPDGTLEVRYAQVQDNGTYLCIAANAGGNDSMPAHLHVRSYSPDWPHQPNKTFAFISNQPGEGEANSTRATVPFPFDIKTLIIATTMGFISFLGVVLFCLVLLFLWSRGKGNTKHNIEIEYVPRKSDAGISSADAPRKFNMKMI
UniProt P08138, residues 31-210: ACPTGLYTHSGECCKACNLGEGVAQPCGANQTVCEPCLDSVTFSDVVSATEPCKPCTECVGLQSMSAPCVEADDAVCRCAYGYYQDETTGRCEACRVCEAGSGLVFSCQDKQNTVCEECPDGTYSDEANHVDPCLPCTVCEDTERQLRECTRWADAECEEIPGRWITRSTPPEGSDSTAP
UniProt P20916: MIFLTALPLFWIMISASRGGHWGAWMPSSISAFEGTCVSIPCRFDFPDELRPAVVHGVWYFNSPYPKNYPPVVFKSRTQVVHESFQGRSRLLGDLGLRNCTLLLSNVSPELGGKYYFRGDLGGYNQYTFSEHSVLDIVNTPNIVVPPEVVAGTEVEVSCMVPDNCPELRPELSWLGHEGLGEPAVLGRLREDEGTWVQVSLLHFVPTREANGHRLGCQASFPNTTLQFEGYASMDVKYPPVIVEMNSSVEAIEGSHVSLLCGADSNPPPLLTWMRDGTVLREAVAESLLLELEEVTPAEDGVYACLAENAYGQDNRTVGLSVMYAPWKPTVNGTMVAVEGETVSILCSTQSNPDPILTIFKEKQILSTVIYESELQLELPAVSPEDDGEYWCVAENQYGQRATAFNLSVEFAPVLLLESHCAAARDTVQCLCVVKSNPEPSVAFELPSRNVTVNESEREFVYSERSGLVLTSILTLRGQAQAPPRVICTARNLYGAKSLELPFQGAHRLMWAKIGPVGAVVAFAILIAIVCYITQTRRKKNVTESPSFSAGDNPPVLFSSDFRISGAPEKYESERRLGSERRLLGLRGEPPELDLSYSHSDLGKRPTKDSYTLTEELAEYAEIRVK
ADAM17 ectodomain (ECD), residues 215-650, active-site mutant E406A (P78536, form named): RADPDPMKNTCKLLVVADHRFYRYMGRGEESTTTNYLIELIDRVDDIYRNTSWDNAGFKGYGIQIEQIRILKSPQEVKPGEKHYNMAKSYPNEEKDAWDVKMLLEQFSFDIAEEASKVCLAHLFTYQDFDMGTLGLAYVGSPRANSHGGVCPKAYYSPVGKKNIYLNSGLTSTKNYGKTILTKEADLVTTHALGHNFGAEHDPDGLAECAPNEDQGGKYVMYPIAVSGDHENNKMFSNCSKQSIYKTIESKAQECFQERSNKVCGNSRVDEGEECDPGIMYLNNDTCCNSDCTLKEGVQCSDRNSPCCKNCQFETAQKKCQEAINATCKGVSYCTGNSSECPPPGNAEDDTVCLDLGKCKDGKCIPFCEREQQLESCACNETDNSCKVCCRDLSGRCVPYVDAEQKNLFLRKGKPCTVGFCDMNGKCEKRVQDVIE

Test [2] has as its target ADAM17 ECD (E406A)-Fc (human) (UniProt P78536). Described as above.
The target in test [3] is ADAM17 ectodomain (ECD), residues 215-650, active-site mutant E406A (human) (UniProt P78536). Description: ELISA; wells coated with ADAM17 ECD (E406A) or ADAM17 D+C; varying concentrations of mAbs D8P1C1, D5P2A11 or C12 added for 1 h at RT, washed, then 5-mer complex (25 μg/ml); detected with MAG A-11; both purified. Background: ELISA stands for enzyme-linked immunosorbent assay.

In test [4] the target is ADAM10 ectodomain (ECD), residues 214-646, active-site mutant E384A (bovine) (UniProt Q10741). Description: ELISA; wells coated with 2 μg/ml ADAM17 ECD (E406A), ADAM17 D+C, ADAM10 ECD (E384A) or ADAM10 D+C overnight at 4°C; varying concentrations of 5-mer complex or isolated p75 added, 1 h at RT; detected with mAb 8J2 (p75) or MAG A-11 (5-mer); both purified.
In test [5] the target is T1, ADAM10 D+C (residues 455-646) (bovine) (UniProt Q10741).
T1 sequence: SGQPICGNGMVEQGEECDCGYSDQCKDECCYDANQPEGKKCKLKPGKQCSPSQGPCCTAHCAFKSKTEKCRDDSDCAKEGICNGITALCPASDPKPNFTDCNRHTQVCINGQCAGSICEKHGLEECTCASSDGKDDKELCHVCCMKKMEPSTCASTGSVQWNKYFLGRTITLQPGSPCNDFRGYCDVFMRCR
Described as above.

Test [6] addresses ADAM17 ectodomain (ECD), residues 215-650, active-site mutant E406A (human) (UniProt P78536). The description is as above.
Test [7] concerns the target NgR1 (residues 30-430) (human) (UniProt Q9BZR6). The test can be described thus: SEC; individual proteins (Lingo-1, NgR1, p75 31-250) run alone on the SD-200 column, in the presence of GT1b-Na; both purified.

No constants are given. Whether binding was seen depends on the method and setting. Some results given as binding are weak or reduced against the parent protein; the word gives no strength.

“ADAM17 ectodomain (ECD), residues 215-650, active-site mutant E406A (from UniProt P78536 215-650) (domain or fragment)”: the binding entry in test [1] is on record as “binds”.
Take “p75 (residues 31-210) (from UniProt P08138 31-210) (domain or fragment)”: the binding entry in test [2] is listed as “no binding”.
For “neuron-myelin 5-mer signaling complex (NgR1, Lingo-1-Fc, p75, MAG, GT1b-Na) (from UniProt Q9D1T0 35-516; Q9BZR6 30-430; P08138 31-210; P20916 22-504)”, the binding entry in test [3] is given as “binds”; in test [4], “no binding”; in test [5], “no binding”; in test [6], “binds”.

B1: NgR1 (residues 30-430) (domain or fragment, UniProt Q9BZR6 30-430)
chain: ACVCYNEPKVTTSCPQQGLQAVPVGIPAASQRIFLHGNRISHVPAASFRACRNLTILWLHSNVLARIDAAAFTGLALLEQLDLSDNAQLRSVDPATFHGLGRLHTLHLDRCGLQELGPGLFRGLAALQYLYLQDNALQALPDDTFRDLGNLTHLFLHGNRISSVPERAFRGLHSLDRLLLHQNRVAHVHPHAFRDLGRLMTLYLFANNLSALPTEALAPLRALQYLRLNDNPWVCDCRARPLWAWLQKFRGSSSEVPCSLPQRLAGRDLKRLAANDLQGCAVATGPYHPIWTGRATDEEPLGLPKCCQPDAADKASVLEPGRPASAGNALKGRVPPGDSPPGNGSGPRHINDSPFGTLPGSAEPPLTAVRPEGSEPPGFPTSGPRRRPGCSRKNRTRSHCR
As to B1, in test [7], the binding result is on record as “no binding”.

For the origin of these results see article PMC11938383, “Antibodies targeting ADAM17 reverse neurite outgrowth inhibition by myelin-associated inhibitors” (Life Science Alliance, 2025).
